Results deposited as PubChem BioAssay AID1159578 (Peter MacCallum Cancer Centre, 2015)

- Purpose: 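Knock-downs that alter how fast lymphatic endothelial cells migrate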 (primary screen)
- Cell system: human lymphatic endothelial cells
- Reagents: siRNA pool against human genes, 40 nM
- Duration: 48 h after transfection
- Measurement: 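Cells stained with dye and imaged after a scratch; covered wound area and nuclei counted, duplicates averaged, migration set against mock wells and turned into a robust z-score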
- Reading the numbers: migration robust z-score: higher = faster migration into the scratch; migration relative to mock: higher = more scratch area covered than mock; nuclei per well: higher = more cells in the well
- Hit rule: 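Migration changed when robust z exceeds 2 or falls below -2 and mean nuclei number is at least 3300; otherwise not called changed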
- Meaning of the calls: active = migration changed; inactive = no migration change, or too few cells
Here is an unselected part of about 18,000 reagents tested. About 1,030 of all reagents (5.7%) count as active. 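Inactive calls also include pools with fewer than 3300 nuclei, whose migration was not assessed.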 The raw values are shown without normalisation. No sequences are given here.

target gene | migration robust z-score | migration class with cell-count check | migration relative to mock | nuclei per well, duplicate mean | activity call
AKR1C2 | -0.16 | migration z between -2 and 2; enough cells | 0.78 | 6007 | inactive
PLOD1 | -2.6 | migration z below -2; enough cells | 0.31 | 5346 | active
ABCC3 | -3.07 | migration z below -2; enough cells | 0.22 | 4820 | active
PARL | 0.54 | migration z between -2 and 2; enough cells | 1.02 | 7113 | inactive
CLEC7A | -1.12 | migration z between -2 and 2; enough cells | 0.59 | 5508 | inactive
UEVLD | -0.93 | migration z between -2 and 2; enough cells | 0.62 | 6128 | inactive
NHS | 1.37 | migration z between -2 and 2; enough cells | 1.23 | 5741 | inactive
CEP63 | -0.19 | migration z between -2 and 2; enough cells | 0.84 | 3898 | inactive
EXO1 | 0.76 | migration z between -2 and 2; enough cells | 0.95 | 6153 | inactive
PAG1 | 1.54 | migration z between -2 and 2; enough cells | 1.29 | 4253 | inactive
UGT2A1 | 0.31 | migration z between -2 and 2; enough cells | 0.86 | 4462 | inactive
GARIN1A | 0.6 | migration z between -2 and 2; enough cells | 1.04 | 5232 | inactive
ITPR3 | -0.57 | migration z between -2 and 2; enough cells | 0.7 | 5903 | inactive
NUDT14 | 1.6 | migration z between -2 and 2; enough cells | 1.12 | 6002 | inactive
NEFL | 0.82 | migration z between -2 and 2; enough cells | 1.1 | 5723 | inactive
RPS17 | -1.26 | migration z between -2 and 2; enough cells | 0.55 | 5806 | inactive
H2BC8 | 1.87 | migration z between -2 and 2; enough cells | 1.37 | 5776 | inactive
GARRE1 | -0.18 | migration z between -2 and 2; enough cells | 0.84 | 4025 | inactive
TAS2R10 | 1.06 | migration z between -2 and 2; enough cells | 1.17 | 5266 | inactive
TXNDC9 | -1.47 | migration z between -2 and 2; enough cells | 0.51 | 3804 | inactive
ZC3H6 | -0.98 | migration z between -2 and 2; enough cells | 0.64 | 6796 | inactive
DIAPH3 | 0.6 | migration z between -2 and 2; enough cells | 0.92 | 5848 | inactive
COXFA4L3 | -0.7 | migration z between -2 and 2; enough cells | 0.7 | 5720 | inactive

A portion from the list above, for reference:
target gene | migration robust z-score | migration class with cell-count check | migration relative to mock | nuclei per well, duplicate mean | activity call
TAS2R10 | 1.06 | migration z between -2 and 2; enough cells | 1.17 | 5266 | inactive
TXNDC9 | -1.47 | migration z between -2 and 2; enough cells | 0.51 | 3804 | inactive
